Data on six molecules can be found in patent publication EP4847499A1, “HETEROCYCLIC COMPOUND FOR INDUCING DEGRADATION OF KRAS PROTEIN” (dated 2026).

Molecules are shown by their SMILES. The structures given here were assigned with low confidence; some may be wrong.

For assay [1], the system named is human G12C mutant KRAS-positive lung cancer line NCI-H358. In words: Non-anchorage-dependent cell growth inhibition, spheroid 3D cell culture (CellTiter Glo 2.0). The note with it: read-out: G12C (NCI-H358) IC50; NCI-H358, 3D spheroid, 6 days. The source says: (§1) Test Example 2: Evaluation of non-anchorage-dependent cell growth inhibitory effect on human G12V mutant KRAS-positive pancreatic cancer line PA-TU-8902, human G12D mutant KRAS-positive pancreatic cancer line PK-59, human G12C mutant KRAS-positive pancreatic cancer line MIA PaCa-2, human G12C mutant KRAS-positive lung cancer line NCI-H358, human G12D mutant KRAS-positive colorectal cancer line GP2d, human G13D mutant KRAS-positive colorectal cancer line LoVo, or human wild-type KRAS gene amplification-positive gastric cancer line MKN1 The non-anchorage-dependent cell growth inhibitory effect of test compounds was evaluated by spheroid 3D cell culture.
(§2) PA-TU-8902 cells or GP2d cells (ECACC, 95090714), Pk-59 cells (RIKEN BRC, RCB1901), MIA PaCa-2 cells (RIKEN BRC, RCB2094), NCI-H358 cells (ATCC, CRL-5807), LoVo cells (ATCC, CCL-229), or MKN1 cells (JCRB, JCRB0252) were seeded on low-cell-adhesive round bottom 384-well plates (Prime Surface: from Sumitomo Bakelite) at 36 µL/well to give 5 × 10^2 cells per well, and the PA-TU-8902 cells were cultured under the same conditions as in Test Example 1. The GP2d cells were cultured using DMEM medium containing 10% fetal bovine serum in the presence of 5% CO2 at 37°C. The PK-59 cells, MIA PaCa-2 cells, LoVo cells, NCI-H358 cells, or MKN1 cells were cultured using RPMI-1640 medium (from Sigma-Aldrich) containing 10% fetal bovine serum in the presence of 5% CO2 at 37°C.
(§3) The next day, the test compounds (10 points having final concentrations in the range of 10 µM to 0.03 nM) and DMSO, which was the solvent for the test compounds, as a negative control were diluted 100-fold with a fresh medium and were added at 4 µL to each well containing the PA-TU-8902 cells, PK-59 cells, MIA PaCa-2 cells, LoVo cells, NCI-H358 cells, or MKN1 cells. After culturing in the presence of 5% CO2 at 37°C for 6 days, CellTiter Glo 2.0 (from Promega) was added at 20 µL per well. After stirring with a plate mixer at room temperature for 1 hour, the luminescent signals were measured with ARVO X3 (from PerkinElmer).
(§4) With the signaling value in treatment with DMSO taken as a survival rate of 100% and with the signaling value in the medium alone without cells taken as a survival rate of 0%, the 50% inhibitory concentration (IC50) was calculated by Sigmoid-Emax model nonlinear regression analysis.
Background: Cellular ATP, detected with luciferase, serves as a proxy for viable cell number.

For assay [2], the system named is human G12C mutant KRAS-positive pancreatic cancer line MIA PaCa-2. The description is as above. The note with it: read-out: G12C (MIA PaCa-2) IC50; MIA PaCa-2, 3D spheroid, 6 days.
From the text: as §1, §2, §3, §4

The subject of assay [3] is human G12D mutant KRAS-positive pancreatic cancer line PK-59. Described as above. The note with it: read-out: G12D (PK-59) IC50; PK-59, 3D spheroid, 6 days.
From the text: as §1, §2, §3, §4

The subject of assay [4] is human G12V mutant KRAS-positive pancreatic cancer line PA-TU-8902. The description is as above. The note with it: read-out: G12V (PA-TU-8902) IC50; PA-TU-8902, 3D spheroid, 6 days.
From the text: as §1, §2, §3, §4

The subject of assay [5] is human G13D mutant KRAS-positive colorectal cancer line LoVo. Described as above. The note with it: read-out: G13D (LoVo) IC50, 3D spheroid, 6 days.
From the text: as §1, §2, §3, §4

For assay [6], the system named is human wild-type KRAS gene amplification-positive gastric cancer line MKN1. The assay is described as above. The note with it: read-out: Wild-type amplification (MKN1) IC50; MKN1, 3D spheroid, 6 days.
From the text: as §1, §2, §3, §4

The test system of assay [7] is human G12D mutant KRAS-positive colorectal cancer line GP2d tumor-bearing mice. In words: Anti-tumor activity in GP2d tumor-bearing mice. The settings on record: 3 mg/kg, tail vein, once a week, twice in total; two weeks after grouping; GP2d subcutaneous tumor. The procedure: Test Example 3: Evaluation of anti-tumor activity in human G12D mutant KRAS-positive colorectal cancer line GP2d tumor-bearing mice
GP2d cells were cultured under the same conditions as in Test Example 2. The GP2d cells were collected and suspended in PBS, and a cell suspension prepared at 4.0 × 10^7 cells/mL with two equal volumes of VitroGel Hydrogel Matrix (from TheWell Bioscience) was subcutaneously inoculated into 4- to 5-week-old male nude mice (BALB/c-nu (nu/nu), from The Jackson Laboratory Japan, Inc.) in a volume of 100 µL. About two weeks after the inoculation, the mice were divided into groups so that all the groups had approximately the same tumor volume and body weight, and administration of a test compound was started on the next day. The study was conducted for 5 mice each of a vehicle control group and test compound administration groups. The test compounds were dissolved in a solvent containing ethanol (from FUJIFILM Wako Pure Chemical Corporation), a 5% glucose solution (from Otsuka Pharmaceutical), 1 M hydrochloric acid, a 50% solution of (2-hydroxypropyl)-β-cyclodextrin (HP-βCD) (from ROQUETTE), HCO-40 (from Nikko Chemicals Co., Ltd.), and 1 M sodium hydroxide solution at a liquid amount ratio of 4:84.4:1.1:1:9:0.5. The test compound or vehicle control was administered into the tail vein. The administration was performed once a week and twice in total. The tumor sizes and the body weights were measured twice a week. The tumor volumes were calculated using the following equation. [formula]
The tumor growth inhibition rate (%) by the test compound was calculated with the tumor volume of the test compound administration group on the previous day of the start of the administration taken as 100% inhibition and the tumor volumes of the vehicle groups two weeks after the day of grouping taken as 0% inhibition. In addition, when the tumor volume of a test compound administration group was smaller than the tumor volume on the previous day of the start of the administration, the tumor regression rate (%) by the test compound was calculated with the tumor volume on the previous day of the start of the administration taken as 0% regression and with the tumor volume 0 taken as 100% regression. The results for some test compounds of formula (I) and formula (I-I) are shown in a table below.

One may read the IC50 as the concentration needed to halve the response being measured.

On to `Cc1c(F)cc2[nH]ncc2c1-c1c(C2CC2)cc2c(N3CC[C@H]3C(N)=O)nc(OCC(C)(C)CN(C)C)nc2c1OCc1ccc(C(=O)N2CCC3(CCC(CCOc4cc(N5CCC(=O)NC5=O)ccn4)CC3)CC2)cc1`, for which the IC50 was 2.9 nM in assay [1]; 4.6 nM in assay [2]; 7.3 nM in assay [3]; 16 nM in assay [4]; 30 nM in assay [5]; 3.1 nM in assay [6]. In assay [7], the “Anti-tumor activity: tumor growth inhibition rate” value was 85% inhibition.

On to `CCN1CCN(c2nc(N3CC[C@H]3C(N)=O)c3cc(C4CC4)c(-c4c(C)c(F)cc5[nH]ncc45)c(OCc4ccc(C(=O)N5CCC6(CCC(CCOc7cncc(N8CCC(=O)NC8=O)c7)CC6)CC5)cc4)c3n2)C[C@@H]1C`, for which the IC50 came to 1.7 nM in assay [1]; 4.6 nM in assay [2]; 6.2 nM in assay [3]; 11 nM in assay [4]; 73 nM in assay [5]; 1.9 nM in assay [6]. The “Anti-tumor activity: tumor regression rate” value in assay [7] worked out at 29% regression.

Consider `Cc1c(OCCC2CCC3(CC2)CCN(C(=O)c2ccc(COc4c(-c5c(C)c(F)cc6[nH]ncc56)c(C5CC5)cc5c(N6CC[C@H]6C(N)=O)nc(N6CCN(C)[C@@H](C)C6)nc45)cc2)CC3)cncc1N1CCC(=O)NC1=O`, for which the IC50 in assay [1] came out at 2.8 nM; in assay [2] it was 3.1 nM; in assay [3], 4.1 nM; in assay [4], 8.5 nM; in assay [5], 46 nM; in assay [6] it was 2.8 nM. Further, the “Anti-tumor activity: tumor regression rate” value in assay [7] came out at 18% regression.

As for `Cc1c(F)cc2[nH]ncc2c1-c1c(C2CC2)cc2c(N3CC[C@H]3C(N)=O)nc(N3CCN(C)[C@@H](C)C3)nc2c1OCc1ccc(C(=O)N2CCC3(CCC(CC#Cc4cc(N5CCC(=O)NC5=O)ccn4)CC3)CC2)cc1`, the IC50 in assay [1] is 1.5 nM; in assay [2], 1.8 nM; in assay [3], 5.1 nM; in assay [4] it was 8.9 nM; in assay [5] it was 33 nM; in assay [6] it was 2.1 nM. In addition, the “Anti-tumor activity: tumor growth inhibition rate” value in assay [7] came out at 97% inhibition.

Consider `Cc1c(OCCC2CCC3(CC2)CCN(C(=O)c2ccc(COc4c(-c5c(C)c(F)cc6[nH]ncc56)c(C5CC5)cc5c(N6CC[C@H]6C(N)=O)nc(N6CCN(C)C7(CC7)C6)nc45)cc2)CC3)cncc1N1CCC(=O)NC1=O`, for which the 50% inhibitory concentration (IC50) was determined as 4.9 nM in assay [2], 7.3 nM in assay [3], 12 nM in assay [4] and 47 nM in assay [5].

With `Cc1c(F)cc2[nH]ncc2c1-c1c(C2CC2)cc2c(N3CC[C@H]3C(N)=O)nc(OCC(C)(C)CN(C)C)nc2c1OCc1ccc(C(=O)N2CCC3(CCC(N4CCC=C(c5cccc(N6CCC(=O)NC6=O)c5)C4)CC3)CC2)cc1`, the IC50 in assay [2] worked out at 8.8 nM; in assay [3], 67 nM; in assay [4], 12 nM; in assay [5] it was 140 nM.
